# Primary screen of a compound library

By UniProt entry, the sequences of proteins in these tests, tags left out. Residues count along the entry.
UniProt A4I591, 1-473: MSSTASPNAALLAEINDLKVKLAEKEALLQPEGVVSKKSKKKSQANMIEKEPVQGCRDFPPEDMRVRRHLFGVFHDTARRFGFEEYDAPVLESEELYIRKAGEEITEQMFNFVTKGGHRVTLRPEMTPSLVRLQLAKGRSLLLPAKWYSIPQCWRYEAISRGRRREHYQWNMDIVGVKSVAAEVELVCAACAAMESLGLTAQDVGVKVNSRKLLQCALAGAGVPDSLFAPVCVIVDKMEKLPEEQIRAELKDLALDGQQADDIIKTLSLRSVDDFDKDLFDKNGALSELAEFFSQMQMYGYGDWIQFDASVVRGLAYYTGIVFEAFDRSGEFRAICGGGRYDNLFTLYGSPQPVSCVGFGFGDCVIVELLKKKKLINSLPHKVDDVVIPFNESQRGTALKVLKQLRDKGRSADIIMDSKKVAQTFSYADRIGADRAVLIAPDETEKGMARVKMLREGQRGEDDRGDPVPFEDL
UniProt Q4DA54, 1-478: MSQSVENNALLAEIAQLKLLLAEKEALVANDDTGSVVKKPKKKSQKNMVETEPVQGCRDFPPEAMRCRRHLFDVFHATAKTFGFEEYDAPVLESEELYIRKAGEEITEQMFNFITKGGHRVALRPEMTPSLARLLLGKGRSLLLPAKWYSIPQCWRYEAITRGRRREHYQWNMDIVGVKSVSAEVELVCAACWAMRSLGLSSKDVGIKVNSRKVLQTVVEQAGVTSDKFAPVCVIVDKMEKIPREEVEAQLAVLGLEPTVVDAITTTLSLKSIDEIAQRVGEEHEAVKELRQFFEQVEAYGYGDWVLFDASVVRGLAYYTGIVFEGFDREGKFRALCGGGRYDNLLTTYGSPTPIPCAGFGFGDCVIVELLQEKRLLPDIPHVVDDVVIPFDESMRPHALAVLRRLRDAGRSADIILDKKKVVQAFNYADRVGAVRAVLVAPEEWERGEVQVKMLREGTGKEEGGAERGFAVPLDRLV
UniProt Q8IDJ8, 1-583: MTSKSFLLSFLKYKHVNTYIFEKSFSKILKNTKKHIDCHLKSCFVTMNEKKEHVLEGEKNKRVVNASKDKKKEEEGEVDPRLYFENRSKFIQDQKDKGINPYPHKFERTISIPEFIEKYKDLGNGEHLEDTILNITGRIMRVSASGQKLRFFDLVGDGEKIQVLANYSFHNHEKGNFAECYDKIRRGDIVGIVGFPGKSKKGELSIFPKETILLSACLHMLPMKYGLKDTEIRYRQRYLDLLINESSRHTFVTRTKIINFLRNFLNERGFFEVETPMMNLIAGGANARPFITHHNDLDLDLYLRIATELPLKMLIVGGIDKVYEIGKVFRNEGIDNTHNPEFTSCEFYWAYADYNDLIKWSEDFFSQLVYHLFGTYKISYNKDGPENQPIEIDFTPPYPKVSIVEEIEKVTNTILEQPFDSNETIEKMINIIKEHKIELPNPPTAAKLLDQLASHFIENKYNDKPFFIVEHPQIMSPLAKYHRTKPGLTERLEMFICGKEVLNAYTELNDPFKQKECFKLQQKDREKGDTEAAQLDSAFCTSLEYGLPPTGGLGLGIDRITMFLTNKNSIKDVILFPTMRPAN

LiHisRS: 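Enzyme assay of histidyl-tRNA synthetase; the read-out is not stated. Target: Histidine-tRNA ligase, Leishmania infantum (UniProt A4I591). Concentration: 30 µM. The record gives no direction; compounds that gave an IC50 in retests scored well above the rest, so higher reads as stronger inhibition. The assay is labelled LdHisRS but filed under L. infantum. Of about 69,000 compounds tested this way, about 410 (0.6%) reached 50% or more in at least one test.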
TcHisRS: 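Enzyme assay of histidyl-tRNA synthetase; the read-out is not stated. Target: Histidine-tRNA ligase, Trypanosoma cruzi CL Brener (UniProt Q4DA54). Concentration: 30 µM. Higher reads as stronger inhibition (inferred: compounds with an IC50 in retests scored well above the rest). About 69,000 compounds were tested under these conditions; 0.045% (about 31) showed 50% or more at least once.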
PfKRS1: 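Lysine-tRNA ligase, Plasmodium falciparum 3D7 (UniProt Q8IDJ8). Enzyme assay of the cytosolic lysyl-tRNA synthetase in 384-well plates, read by luminescence. Compounds at 30 µM. Higher reads as stronger inhibition, judged from the few compounds that gave an IC50. About 69,000 compounds were tested under these conditions; 0.071% (about 49) showed 50% or more at least once.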
Leishmania in macrophages: 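Cell assay of Leishmania donovani living inside macrophages; the read-out is not stated. Concentration: 30 µM. The record gives no direction; compounds that gave an IC50 in retests scored well above the rest, so higher reads as stronger inhibition. Size under these conditions: about 69,000 compounds, about 1,000 of them at 50% or above in at least one test.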

Values are the deposited “Percent Effect”, in %. The record does not define 0% and 100%; most values in the screen are far below 50% and negative numbers occur (in some assays of this library far below -100). The compounds are a random part of those screened. Two or more numbers in one place are separate tests of the same structure; such repeats can differ widely. A dash means the value is not listed here; it may have been measured.

structure	LiHisRS	TcHisRS	PfKRS1	Leishmania in macrophages
Cc1c(Cl)cccc1NC(=O)N1CCN(Cc2ccccn2)CC1	8.85%	2.632%	-0.6028%	44.52%
CN(Cc1ccncn1)C(=O)CCC(=O)NC1CCCC1	16.13%	-0.8772%	-1.074%	23.58%
CCC(CO)N(Cc1ccccn1)C(=O)c1ccc(C)c(Cl)c1 (configuration not stated)	7.292%	10.06%	9.966%	14.67%
OCC(CO)Nc1cccc(C(F)(F)F)n1	4.478%	6.383%	-0.7444%	4.647%
CCc1cc(O)nc(C2CCCN2C(=O)c2cc(CC)on2)n1 (configuration not stated)	18.56%	8.889%	3.665%	19.68% and 9.986%
Cc1ccc(OC2(C(=O)NC(C)c3csc(C)n3)CCNCC2)cc1 (configuration not stated)	9.677%	-1.754%	-0.3896%	35.69%
CCCn1ncc(C(=O)N2CCN(C(=O)c3ccc[nH]3)CC2)c1C	8.772%	7.65%	0.3702%	13.73%
CC(=O)Nc1ccc(CN2CCc3[nH]cnc3C2c2nccn2C)cc1 (configuration not stated)	13.68%	2.703%	8.62%	-10.3%
Cn1ccc(C(=O)Nc2nc(-c3ccc(Cl)cc3)n[nH]2)cc1=O	18%	13.25%	4.096%	2.757%
COCc1ncn(Cc2nc(-c3ccc(OC)c(OC)c3)oc2C)n1	11.86%	1.463%	3.636%	-20.14%
COCCN1CCn2cc(CNC(=O)c3cnn(C)c3)nc2C1.O=C(O)C(F)(F)F	-	-	-	-39.71%
CN(CCCSc1ccccc1)C(=O)Cn1ncc(N(C)C)cc1=O	1.639%	2.4%	6.299%	-1.147%
Cc1cnn(C2CCCN(C(=O)Cc3ccc(-n4cccn4)cc3)C2)c1 (configuration not stated)	9.459%	0.3774%	-0.1077%	8.038%
OC(COc1ccc(F)cc1)CN1CCC(c2ccn[nH]2)CC1 (configuration not stated)	5.085%	2.857%	3.815%	28.15%
Cc1nn(C)c2ncnc(NCC(O)CN3CCCCC3)c12 (configuration not stated)	-8.861%	2.155%	6.448%	1.423%
c1ccc(O[C@H]2CO[C@@]3(CCCN(Cc4nccs4)C3)C2)nc1	21%	7.143%	0.6471%	-
O=C(C1CC1)N1CCC2(CC1)COCCN2Cc1ccc(F)cc1	15.6%	2.521%	-0.2932%	-
Cc1ccc(CN(c2cc(C)nc3nc(C(F)(F)F)nn23)C2CC2)cc1	17.14%	12.37%	9.614%	19.02%
Cn1ncc2c1CCCC2NCc1cccc(C(F)(F)F)c1 (configuration not stated)	2.632%	3.198%	0.3741%	-
CC(C)n1nc(O)c2c1NC(=O)CSC2c1cnn(C)c1 (configuration not stated)	10.53%	0%	0.2311%	-5.993% and 7.132%
CN1CCN(C(=O)[C@@H]2CCO[C@@H]3CCN(c4ncccn4)C[C@@H]32)CC1	15.09%	3.784%	0.9967%	-
CS(=O)(=O)N1CCCC12CCCN(C(=O)c1ccnnc1)C2 (configuration not stated)	11.84%	1.087%	2.288%	6.977%
CCNC(=O)[C@@H]1C[C@@H](NC(=O)c2ccc(C)s2)CN1Cc1ccccn1	12.24%	13%	0.08645%	-14.84%
CCn1ccnc1CN(C)Cc1nc(CCC(C)C)no1	-6.579%	5.419%	-1.742%	-15.51%
COc1cc(NC(=O)NC2CCOCC2)ccc1N1CCOC1=O	13.33%	-0.5435%	-2.455%	0.797%
O=C(c1ccco1)N1CC[C@@H]2O[C@H](COCCN3CCCC3)CC[C@@H]21	21.1%	10.92%	7.658%	-
CN(C)CCn1ccc(NC(=O)NC(C)(C)c2nccs2)n1	11.61%	1.724%	1.164%	0.5833%
CCOc1cccc(CCNC(=O)Cc2ccn[nH]2)n1	17.6%	-2.941%	11.39%	24.27%
CC(CNC(=O)CCCn1cncn1)N1CCc2ccccc2C1 (configuration not stated)	-1.333%	3.704%	-5.841%	32.84%
O=C(O)C(F)(F)F.[H][C@@]12C[C@@H](c3nc(C4CC4)cs3)O[C@]1([H])CN(C(=O)c1cnccn1)C2	-	-	-	29.04%
CN(CCO)Cc1nnc(C2CCN(C3CCCCC3)CC2)n1C	16.5%	3.734%	6.652%	24.8%
Cc1cc(C(=O)N2CCCC(n3cncn3)C2)no1 (configuration not stated)	4.63%	4.399%	0.1406%	13.68%
O=C(c1ccoc1)N1CCC2(CC1)C(=O)N(CC1CC1)c1ccccc12	9.615%	4.854%	-1.61%	9.182%
Cc1cc(O)nc(C2CCN(C(=O)CO)CC2)n1	1.439%	-0.3831%	-0.8115%	-1.205%
O=C(c1ccco1)N1C(CO)[C@]2(O)CC[C@H]1CC2 (some centres not stated)	6.122%	0%	3.833%	-

For reference, 2 entries once more:

For CN(Cc1ccncn1)C(=O)CCC(=O)NC1CCCC1 the result was LiHisRS: 16.13%; TcHisRS: -0.8772%; PfKRS1: -1.074%; Leishmania in macrophages: 23.58%.
For CC(C)n1nc(O)c2c1NC(=O)CSC2c1cnn(C)c1 (configuration not stated) the result was LiHisRS: 10.53%; TcHisRS: 0%; PfKRS1: 0.2311%; Leishmania in macrophages: -5.993% and 7.132%.

Source: ChEMBL document CHEMBL3988442, “University of Dundee, Small-Polar-MMV Screening Library” (2021).